Experimental data reported in PubChem BioAssay AID1671190 (National Center for Advancing Translational Sciences (NCATS), 2021).
Screen size: about 580,000 compounds; about 6,100 (1.1%) were called active. This list was built around the results that the source calls inconclusive (neither active nor inactive); the mix of calls is not that of the screen. Calls come from the whole dose curve; as a rule, active = well fitted inhibition curve with a large enough effect; inconclusive = small, poorly fitted or top-dose-only effect, or another doubt; inactive = no such curve, though single readings can be large or run the other way. Where the call is inconclusive, the potency comes from a doubtful curve fit.

Protein sequences, listed by entry. Tags and fused reporters are not part of them.
UniProt P18054, whole entry, looked up: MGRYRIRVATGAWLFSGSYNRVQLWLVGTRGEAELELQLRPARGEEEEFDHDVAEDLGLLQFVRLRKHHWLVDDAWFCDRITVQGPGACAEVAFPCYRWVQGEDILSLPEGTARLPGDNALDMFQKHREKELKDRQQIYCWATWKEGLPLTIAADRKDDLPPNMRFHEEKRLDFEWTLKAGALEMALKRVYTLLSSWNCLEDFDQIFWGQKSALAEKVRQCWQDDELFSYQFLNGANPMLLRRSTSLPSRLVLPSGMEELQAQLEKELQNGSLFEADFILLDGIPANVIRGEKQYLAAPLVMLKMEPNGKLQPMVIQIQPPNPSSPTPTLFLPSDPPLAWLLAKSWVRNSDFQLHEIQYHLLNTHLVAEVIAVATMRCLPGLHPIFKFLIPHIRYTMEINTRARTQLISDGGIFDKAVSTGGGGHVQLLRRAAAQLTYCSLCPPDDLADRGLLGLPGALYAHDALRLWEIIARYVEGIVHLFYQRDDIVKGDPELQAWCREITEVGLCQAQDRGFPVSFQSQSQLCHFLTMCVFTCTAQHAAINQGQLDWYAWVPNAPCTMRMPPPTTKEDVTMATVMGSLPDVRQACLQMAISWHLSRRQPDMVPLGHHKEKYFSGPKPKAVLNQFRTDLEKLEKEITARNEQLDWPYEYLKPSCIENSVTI

target: Polyunsaturated fatty acid lipoxygenase ALOX12 (Homo sapiens) (UniProt P18054); assay: Primary qHTS assay for inhibitors of human arachidonate 12S-lipoxygenase (ALOX12): Round 2; details: purified 12hLO, xylenol orange hydroperoxide absorbance; activity change, negative = inhibition: at 108 µM (top of the series) unless noted
Procedure, shortened: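 Hydroperoxide product was detected by ferrous iron/xylenol orange as the 573 to 405 nm absorbance ratio. Arachidonic acid at 40 uM (final) was turned over for 30 min at room temperature by 150 nM human 12hLO, pH 7.0 Hepes buffer, after 15 min compound preincubation.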
% is set by controls: 0 for no effect and ±100 for the full control effect; potency is the fitted concentration of half-maximal effect.

Row | Structure (SMILES) | Potency | activity change, negative = inhibition
1 | CN(C)c1ccc(/C=C/c2ccc3c4ccccc4ccc3[n+]2-c2ccccc2)cc1 | inconclusive: 44.7 µM [inhibitor, partial curve, poor fit] | –
2 | COC(=O)CC(NC(=O)Nc1ccc(C)cc1)c1cccc([N+](=O)[O-])c1 (stereo unspecified) | inconclusive: 39.8 µM [inhibitor, partial curve, poor fit] | –
3 | c1coc(CNc2nc(N3CCCCC3)nc3ccccc23)c1 | – | inactive: -37.1%
4 | CCN(CC)CCCNc1oc(-c2cccc(C)c2)nc1C#N | inconclusive: 44.7 µM [inhibitor, partial curve, poor fit] | –
5 | Cc1ccc(CN2C(=O)NC3(CCN(C(=O)Cc4cccc(F)c4)CC3)C2=O)cc1 | inconclusive: 35.5 µM [inhibitor, full curve] | –
6 | CC(=O)c1sc(N/N=C\c2cccc(Br)c2)nc1C | inconclusive: 112 µM [inhibitor, partial curve, poor fit] | –
7 | CC(=O)CSc1cc(C)nc2c(-c3ccccc3)c(C)nn12 | inconclusive: 126 µM [inhibitor, single point] | –
8 | CCCCOC(=O)c1nc2ccccc2nc1NCc1ccc2c(c1)OCO2 | inconclusive: 39.8 µM [inhibitor, partial curve, poor fit] | –
9 | S=C(NCc1ccccc1)NC1CCSc2ccccc21 (stereo unspecified) | inconclusive: 50.1 µM [inhibitor, partial curve, poor fit] | –
10 | COc1cc(SC)ccc1C(=O)N1CCN(Cc2ccccc2)CC1 | – | inactive: -6.35%
11 | CC(NCC(=O)NC1CCCCC1)c1cccc(C(F)(F)F)c1 (stereo unspecified) | – | inactive: 40.5%
12 | CC(=O)Nc1ccc(NC(=O)CCCSc2nc3ccccc3[nH]2)cc1 | inconclusive: 100 µM [inhibitor, single point] | –
13 | O=C(Nc1ccc2c(c1)[C@@H]1C[C@@H](CC(=O)N3CCOCC3)O[C@@H](CO)[C@@H]1O2)NC1CCCC1 | inconclusive: 35.5 µM [inhibitor, single point] | –
14 | COC(=O)C1CCN(S(=O)(=O)c2cc3c4c(c2)C(C)C(=O)N4CCC3)CC1 (stereo unspecified) | inconclusive: 17.8 µM [inhibitor, partial curve, poor fit] | –
15 | COc1ccc(N=C2S/C(=C\c3ccc(OC(C)C(=O)O)c(OC)c3)C(=O)N2CCc2c[nH]c3ccccc23)cc1 (stereo unspecified) | inconclusive: 39.8 µM [inhibitor, partial curve, poor fit] | –
16 | COC(=O)c1sccc1-c1ccc(/C=N/OC(=O)c2cccs2)o1 | inconclusive: 100 µM [inhibitor, partial curve, poor fit] | –
17 | O=S1(=O)CC(N2CCN(Cc3ccccc3F)CC2)CN1Cc1cn(Cc2ccccc2)nn1 (stereo unspecified) | inconclusive: 44.7 µM [inhibitor, partial curve, poor fit] | –
18 | CCc1nnc(NC(=O)CN2CCN(Cc3cccc(Cl)c3)CC2)s1 | inconclusive: 31.6 µM [inhibitor, partial curve, poor fit] | –
19 | COc1cc(C(=O)NNC(=S)NC(=O)c2ccccc2C)cc(OC)c1OC | – | inactive: -20%
20 | O=C(CSc1nc2ccccc2c2nc(-c3ccccc3)nn12)Nc1ccc(Br)cc1 | inconclusive: 126 µM [inhibitor, single point] | –
21 | O=C(O)c1cc(-c2ccc(Cl)s2)nc2c(Cl)cccc12 | inconclusive: 44.7 µM [inhibitor, partial curve, poor fit] | –

3 entries from above, sorted by SMILES length, low to high:
Row | Structure (SMILES) | Potency | activity change, negative = inhibition
7 | CC(=O)CSc1cc(C)nc2c(-c3ccccc3)c(C)nn12 | inconclusive: 126 µM [inhibitor, single point] | –
16 | COC(=O)c1sccc1-c1ccc(/C=N/OC(=O)c2cccs2)o1 | inconclusive: 100 µM [inhibitor, partial curve, poor fit] | –
12 | CC(=O)Nc1ccc(NC(=O)CCCSc2nc3ccccc3[nH]2)cc1 | inconclusive: 100 µM [inhibitor, single point] | –

(listing goes on)

Row | Structure (SMILES) | Potency | activity change, negative = inhibition
22 | CCN(CC)C(=O)c1cc2c(=O)n3cccc(C)c3nc2s1 | inconclusive: 56.2 µM [inhibitor, partial curve, poor fit] | –
23 | CC(=O)NC1C(=O)N(CCc2ccccc2)c2ccc(Br)cc21 (stereo unspecified) | – | inactive: 24.8%
24 | CCn1cc(C(=O)N2CCCC(C(=O)Nc3cccc(-c4cc5ccccc5[nH]4)c3)C2)cn1 (stereo unspecified) | – | inactive: 22.7%
25 | COc1cc(OC)c2c(C)c(CC(=O)NCc3ccc4c(c3)OCO4)c(=O)oc2c1 | – | inactive: -6.42%
26 | Cc1ccc(S(=O)(=O)Nc2ccc(C)n(CC(=O)N(C)C)c2=O)cc1 | inconclusive: 8.91 µM [inhibitor, full curve] | –
27 | CC(C)(C)N(Cc1cn(CC2CCCCC2)nn1)S(=O)(=O)c1ccccc1Br | inconclusive: 5.62 µM [inhibitor, full curve] | –
28 | CCOC(=O)/C(C#N)=C/c1cccc(C)c1 | inconclusive: 44.7 µM [inhibitor, partial curve, poor fit] | –
29 | Cc1ccc(Nc2c([N+](=O)[O-])c(=O)n(C)c3ccccc23)cc1 | inconclusive: 44.7 µM [inhibitor, partial curve] | –
30 | CCOC(=O)c1sc2nc(NC(=O)C3CCCCC3)sc2c1C | inconclusive: 112 µM [inhibitor, single point] | –
31 | Cc1noc(-c2ccccc2OCC(=O)Nc2cccc([N+](=O)[O-])c2)n1 | – | inactive: -22.1%
32 | C[C@@H](C(=O)NCCc1c[nH]c2ccccc12)[C@@H]1C[C@@]1(C)[C@@H](NC(=O)OCc1ccccc1)c1ccccc1 | inconclusive: 11.2 µM [inhibitor, partial curve, poor fit] | –
33 | CCCCNC(=O)CSCc1nc(-c2ccc(OC)c(OC)c2)oc1C | – | inactive: -9.65%
34 | O=C(NC(c1ccccc1)c1ccccc1)c1cc2ccccc2oc1=O | – | inactive: 22.9%
35 | COC(=O)[C@@H]1Cc2c([nH]c3ccccc23)C2CCC(=O)N21 (stereo partly specified) | inconclusive: 35.5 µM [inhibitor, partial curve, poor fit] | –
36 | CCOC(=O)c1c(C2CC2)csc1NC(=O)COC(=O)c1ccc[n+]([O-])c1 | – | inactive: -25.1%
37 | O=C(/C(Br)=C/Nc1cc(Cl)cc(Cl)c1)C(F)(F)F | inconclusive: 1.78 µM [inhibitor, single point] | –
38 | CC1CCCN(C(=O)Cn2nnc(-c3ccc(S(C)(=O)=O)cc3)n2)C1 (stereo unspecified) | inconclusive: 89.1 µM [inhibitor, single point] | –
39 | Cc1ccc2c(c1)c1c3n2CC(=C2C(=O)OC(C)(C)OC2=O)NC3CCC1 (stereo unspecified) | active: 11.2 µM | –
40 | C=CCn1c(-c2cc(OC)c(OC)c(OC)c2)n[nH]c1=S | inconclusive: 22.4 µM [inhibitor, full curve] | –
41 | Cc1ccccc1OCCNC(=O)CNC(=O)c1ccccc1O | inconclusive: 89.1 µM [inhibitor, single point] | –
